In paper PMC6609651 one finds binding data, which are given here for four substances.

Protein sequences, listed by entry. Tags and fused reporters are not part of them. Lines headed by an entry give the natural chain unless they say otherwise; changes in a name come on top. Residues count along the entry.
UniProt Q03591, residues 19-330: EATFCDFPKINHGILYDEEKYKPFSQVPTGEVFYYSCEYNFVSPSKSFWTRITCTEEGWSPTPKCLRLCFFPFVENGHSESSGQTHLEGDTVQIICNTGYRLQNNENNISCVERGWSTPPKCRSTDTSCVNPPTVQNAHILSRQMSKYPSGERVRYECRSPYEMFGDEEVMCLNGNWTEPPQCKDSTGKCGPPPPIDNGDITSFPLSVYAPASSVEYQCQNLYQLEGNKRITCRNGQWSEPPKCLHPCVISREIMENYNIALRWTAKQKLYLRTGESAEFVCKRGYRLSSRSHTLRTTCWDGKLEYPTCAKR
UniProt Q9UHX3: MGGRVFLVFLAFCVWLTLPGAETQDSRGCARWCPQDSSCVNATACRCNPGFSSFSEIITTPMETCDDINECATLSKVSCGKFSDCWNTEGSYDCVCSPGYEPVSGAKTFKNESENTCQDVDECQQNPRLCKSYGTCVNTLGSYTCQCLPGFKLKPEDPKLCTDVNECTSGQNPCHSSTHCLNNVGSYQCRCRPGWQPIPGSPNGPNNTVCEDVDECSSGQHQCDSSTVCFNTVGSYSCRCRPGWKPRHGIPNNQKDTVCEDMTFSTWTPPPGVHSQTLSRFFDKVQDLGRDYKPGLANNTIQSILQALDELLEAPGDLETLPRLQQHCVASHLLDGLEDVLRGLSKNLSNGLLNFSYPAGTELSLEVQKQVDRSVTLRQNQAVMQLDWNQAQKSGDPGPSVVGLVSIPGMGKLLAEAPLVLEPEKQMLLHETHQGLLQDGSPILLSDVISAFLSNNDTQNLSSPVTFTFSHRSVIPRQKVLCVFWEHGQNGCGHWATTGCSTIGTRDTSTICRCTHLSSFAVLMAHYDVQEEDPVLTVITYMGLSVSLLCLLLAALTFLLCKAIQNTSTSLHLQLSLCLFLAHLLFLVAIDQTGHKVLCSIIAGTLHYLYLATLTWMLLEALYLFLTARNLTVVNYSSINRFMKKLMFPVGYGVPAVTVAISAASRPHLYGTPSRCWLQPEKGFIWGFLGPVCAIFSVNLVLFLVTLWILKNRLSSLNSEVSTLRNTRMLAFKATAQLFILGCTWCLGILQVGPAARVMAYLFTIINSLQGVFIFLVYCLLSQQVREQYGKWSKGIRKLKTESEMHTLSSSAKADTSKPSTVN
UniProt P36980, residues 19-270: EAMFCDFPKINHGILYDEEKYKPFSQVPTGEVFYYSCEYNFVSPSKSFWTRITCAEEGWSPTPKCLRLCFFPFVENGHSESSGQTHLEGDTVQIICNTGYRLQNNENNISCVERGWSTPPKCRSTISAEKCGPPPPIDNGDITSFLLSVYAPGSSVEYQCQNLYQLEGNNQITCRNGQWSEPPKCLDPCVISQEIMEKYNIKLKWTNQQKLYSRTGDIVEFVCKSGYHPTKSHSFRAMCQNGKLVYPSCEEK

These are yes or no findings as the source states them, for the method shown. A result given as binding can be weak or reduced; the word gives no strength.

Assay [1] has as its target FHR1 SCR1-2 (human) (UniProt Q03591). Description: ELISA; FHR1 SCR1-2 (5 μg mL^-1) immobilised over night at 4 °C, incubated with NHS (5%) in DPBS 1 h at 37 °C; serum FHR1 detected with monoclonal antibody C18; only the target purified.
Assay [2] shares this target. Description: ELISA; competition: FHR1 SCR1-2 (5 μg mL^-1) immobilised, NHS (5%) in DPBS 1 h at 37 °C, FHR2 or FHR2DM (0, 1, 5 or 15 μg mL^-1) added; FHR1 detected with monoclonal antibody C18, FHR2DM with monoclonal FHR2 antibody; both purified.
Assay [3] deals with Recombinant factor H-related protein FHR1 (human) (UniProt Q03591). In words: ELISA; FHR1 (10 μg mL^-1) or gelatin immobilised on a microtiter plate o.n. at 4 °C, blocked; EMR2 (30 μg mL^-1) 2 h at 37 °C; detected with polyclonal EMR2 antiserum; both purified.
Assay [4] has as its target Recombinant human EMR2 (human) (UniProt Q9UHX3). In words: SPR; Biacore 3000, as described for MDA-LDL (CM5 chip, standard amine coupling, flow 5 μL min^-1, 25 °C); FHR1 125-2,000 nM in PBS injected; both purified.

With “Serum-derived FHR1 (from UniProt Q03591 19-330)”, the binding result in the assay with FHR1 SCR1-2 (human) [1] was “binds”.

For “Recombinant FHR2 (from UniProt P36980 19-270)”, the binding result with FHR1 SCR1-2 (human) [2] is given as “binds”. On to “Recombinant human EMR2 (from UniProt Q9UHX3) (receptor)”, for which the binding entry in assay [3] is “binds”.

On to “Recombinant factor H-related protein FHR1 (from UniProt Q03591 19-330)”, for which, in assay [4], the binding entry was “binds”.
